Laboratory results taken from the supplement of paper PMC9744312.
Where a name gives a salt, the structure may show the parent alone. This is one part of the list. This is a noisy data set.

What follows are molecules tested on Peyronie's disease tunica albuginea primary fibroblasts (assay: inhibition of TGF-beta1-induced alpha-SMA expression (myofibroblast transformation), relative to TGF-beta1-only and untreated controls; higher = stronger inhibition of myofibroblast transformation). Conditions: 10 µM; TGF-beta1 10 ng/mL; 72 h.

Row | SMILES | inhibition of TGF-beta1-induced alpha-SMA expression [%]
1 | Cc1cc(O)ccc1Cl [Chlorocresol] | -11.5
2 | O=c1[nH]c2ccccc2n1CCCN1CCC(n2c(=O)[nH]c3cc(Cl)ccc32)CC1 [Domperidone] | 9.77
3 | C=CC[C@]1(O)CC[C@H]2[C@@H]3CCC4=CC(=O)CCC4=C3C=C[C@@]21C [Altrenogest] | 32.5
4 | Cc1ccccc1-n1c(CF)nc2ccc(N)cc2c1=O [Afloqualone] | 12.4
5 | C/C(=C\c1csc(C)n1)[C@@H]1C[C@@H]2O[C@]2(C)CCC[C@H](C)[C@H](O)[C@@H](C)C(=O)C(C)(C)[C@@H](O)CC(=O)O1 [Patupilone (EPO906, Epothilone B)] | 95.6
6 | COc1ccc2c(c1)[C@]13CCCC[C@@H]1[C@H](C2)N(C)CC3 [Dextromethorphan hydrobromide hydrate] | 34.1
7 | Cc1cccc(C(C)c2c[nH]cn2)c1C (stereo unspecified) [Medetomidine HCl] | 13.9
8 | Cc1cccc(C)c1NC1=NCCCS1 [Xylazine HCl] | 1.87
9 | COc1cc2c(cc1OC)C1CC(=O)C(CC(C)C)CN1CC2 (stereo unspecified) [Tetrabenazine (Xenazine)] | -0.369
10 | CN1C(=O)COc2c(C(=O)NC3CN4CCC3CC4)cc(Cl)cc21 (stereo unspecified) [Azasetron HCl] | 13.5
11 | Clc1ccc(C(OCCN2CCCCC2)c2ccccc2)cc1 (stereo unspecified) [Cloperastine hydrochloride] | 20.4
12 | O=C(O[C@H]1C[N+]2(CCCOc3ccccc3)CCC1CC2)C(O)(c1cccs1)c1cccs1 [Aclidinium Bromide] | 1.88
13 | NC(=O)CN1CCCC1=O [Piracetam] | 47
14 | O=P1(NCCCl)OCCCN1CCCl (stereo unspecified) [Ifosfamide] | -18.5
15 | Cc1cccc([C@H](C)c2c[nH]cn2)c1C [Dexmedetomidine] | 13.4
16 | Cc1cccc([C@H](C)c2c[nH]cn2)c1C [Dexmedetomidine HCl] | 5.84
17 | C#C[C@]1(O)C=C[C@H]2[C@@H]3CCC4=CC(=O)CC[C@@H]4[C@H]3CC[C@@]21CC [Gestodene] | 11.3
18 | C[N+]12CCC(CC1)C(OC(=O)C(O)(c1ccccc1)c1ccccc1)C2 (stereo unspecified) [Clidinium Bromide] | 0.902
19 | NCCc1c[nH]c2ccc(O)cc12 [Serotonin HCl] | 12.8
20 | CCC(COC(=O)c1cc(OC)c(OC)c(OC)c1)(c1ccccc1)N(C)C (stereo unspecified) [Trimebutine] | -8.71
21 | CCNC1(c2cccs2)CCCCC1=O (stereo unspecified) [Tiletamine Hydrochloride] | 23.1
22 | CCC1(c2cccc(O)c2)CCCCN(C)C1 (stereo unspecified) [Meptazinol HCl] | 18
23 | CC[C@H]1[C@@H]2C[C@H]3[C@@H]4N(C)c5ccccc5[C@]45C[C@@H]([C@@H]2[C@H]5O)N3[C@@H]1O [Ajmaline] | 6.76
24 | C[C@@H]1CC[C@H]2[C@@H](C)C(=O)O[C@@H]3O[C@@]4(C)CC[C@@H]1[C@]32OO4 [Artemisinin] | 51.4
25 | COc1cc2c(cc1OC)[C@@]13CCN4CC5=CCO[C@H]6CC(=O)N2[C@H]1[C@H]6[C@H]5C[C@H]43 [Brucine sulfate salt hydrate] | 8.67
26 | COC(=O)C1=CCCN(C)C1 [Arecoline HBr] | -5.83

4 entries from above, as labelled records.
NC(=O)CN1CCCC1=O [Piracetam]
  inhibition of TGF-beta1-induced alpha-SMA expression [%]: 47
C[N+]12CCC(CC1)C(OC(=O)C(O)(c1ccccc1)c1ccccc1)C2 (stereo unspecified) [Clidinium Bromide]
  inhibition of TGF-beta1-induced alpha-SMA expression [%]: 0.902
CCC(COC(=O)c1cc(OC)c(OC)c(OC)c1)(c1ccccc1)N(C)C (stereo unspecified) [Trimebutine]
  inhibition of TGF-beta1-induced alpha-SMA expression [%]: -8.71
CC[C@H]1[C@@H]2C[C@H]3[C@@H]4N(C)c5ccccc5[C@]45C[C@@H]([C@@H]2[C@H]5O)N3[C@@H]1O [Ajmaline]
  inhibition of TGF-beta1-induced alpha-SMA expression [%]: 6.76

(continued)

Row | SMILES | inhibition of TGF-beta1-induced alpha-SMA expression [%]
27 | CC(C)N(CCNC(=O)CN1CCCC1=O)C(C)C [Pramiracetam] | -3.04
28 | CNCC(=O)c1ccc(O)c(O)c1 [Adrenalone HCl] | 19.3
29 | C[C@]12CC[C@H]3[C@@H](CC[C@@]45O[C@@H]4C(O)=C(C#N)C[C@]35C)[C@@H]1CC[C@@H]2O [Trilostane] | 24.7
30 | Oc1cc(Cl)ccc1Oc1ccc(Cl)cc1Cl [Triclosan] | 16.4
31 | C[C@@H]1O[C@@H](O[C@H]2C[C@@H](O)[C@]3(CO)[C@H]4[C@H](O)C[C@]5(C)[C@@H](C6=CC(=O)OC6)CC[C@]5(O)[C@@H]4CC[C@]3(O)C2)[C@H](O)[C@H](O)[C@H]1O [Ouabain] | > 100
32 | NCC(O)c1ccc(O)cc1 (racemic) [(+,-)-Octopamine HCl] | 9.91
33 | C[N+]1(C)[C@@H]2C[C@@H](OC(=O)[C@H](CO)c3ccccc3)C[C@H]1[C@@H]1O[C@@H]12 [Methscopolamine] | 45.9
34 | CCC1(c2ccc(N)cc2)CCC(=O)NC1=O (stereo unspecified) [Aminoglutethimide] | -2.72
35 | CCN(C)C(=O)Oc1cccc([C@H](C)N(C)C)c1 [Rivastigmine] | 88.2
36 | CCN(C)C(=O)Oc1cccc([C@H](C)N(C)C)c1 [Rivastigmine Tartrate] | -0.377
37 | OC(c1ccccc1)(c1ccccc1)C1CCNCC1 [Azacyclonol] | 34.9
38 | C[N+]1(C)CCCC(OC(=O)C(O)(c2ccccc2)c2ccccc2)C1 (stereo unspecified) [Mepenzolate Bromide] | 6.19
39 | COc1ccc(CN(C(=O)[C@@H](N)Cc2c(C)cc(C(N)=O)cc2C)[C@@H](C)c2ncc(-c3ccccc3)[nH]2)cc1C(=O)O [Eluxadoline] | 15
40 | CCC1(C)CC(=O)NC(=O)C1 [Bemegride] | 17.1
41 | Oc1ccc(Cl)cc1Cc1cc(Cl)ccc1O [Dichlorophene] | 55.2
42 | C=CN1CCCC1=O.II [Povidone iodine] | -56.4
43 | Cn1c(COP(=O)(NCCBr)NCCBr)cnc1[N+](=O)[O-] [Evofosfamide (TH-302)] | 22.2
44 | CC(=O)NC1CCSC1=O (stereo unspecified) [Citiolone] | 7.21
45 | O=P1(N(CCCl)CCCl)NCCCO1 (stereo unspecified) [Cyclophosphamide Monohydrate] | 3.03
46 | CN1C(=O)CCS(=O)(=O)C1c1ccc(Cl)cc1 (stereo unspecified) [Chlormezanone] | 27.5
47 | O.O.O.O=C([O-])C1[O][Sb]2[O]C(=O)C([O]2)C(C(=O)[O-])[O][Sb]2[O]C(=O)C1[O]2.[K+].[K+] (stereo unspecified) [Antimonyl potassium tartrate trihydrate] | 28.9
48 | CCCCCCCCCCCCCCCC[n+]1ccccc1 [Cetylpyridinium Chloride] | > 100
49 | C=C1C[C@@H]2[C@H](CC[C@]3(C)C(=O)CC[C@@H]23)[C@@]2(C)C=CC(=O)C=C12 [Exemestane] | 37.6
50 | CNC(C)Cc1ccccc1OC (stereo unspecified) [Methoxyphenamine Hydrochloride] | -8.16
51 | CCN(CC)CCOC(=O)C(O)(c1ccccc1)c1ccccc1 [Benactyzine hydrochloride] | -10.3
